Taken from: PubChem BioAssay AID1224826 (NIAID, 2016)

Assay: 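Regulators of Tlr4 signalling leading to Tnf-alpha expression in macrophages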 (primary screen)
Cells: RAW264.7 G9 macrophages from mouse bearing reporters for p65 (GFP) and the Tnf promoter (mCherry)
Reagents: siRNA pool against mouse genes, 100 nM
Timing: 16 h of LPS stimulation, after 2 days of siRNA transfection
Challenge: bacterial lipopolysaccharide (Salmonella minnesota R595), 10 ng/ml
Measured: 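Nuclear mCherry signal of the Tnf promoter reporter measured by imaging after background removal, scaled to each plate median and turned into robust z-scores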
Scale: Tnf reporter robust z-score: higher = stronger Tnf promoter reporter signal after LPS; Tnf reporter intensity: higher = stronger Tnf promoter reporter signal
Call rule: 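Called active when robust z-score is at most -1.3, matching the median of the Tlr4 knock-down control, or over 3; control wells and wells with under 50 cells never active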
Meaning of the calls: active = Tnf reporter clearly lowered or raised; inactive = no clear change in Tnf reporter
Shown is an unselected part of about 17,000 deposited reagents. About 1,110 of all reagents (6.6%) count as active. 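Active means lowered or raised reporter signal; replicate intensities are raw and not normalised per plate.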 Reagent sequences are not shown.

no.	gene symbol	Tnf reporter robust z-score	fewer than 50 cells in well	Tnf reporter intensity, replicate 1	Tnf reporter intensity, replicate 2	Call
1	Pira6	2.53	enough cells in well	276	204	inactive
2	Paf1	0.11	enough cells in well	189	155	inactive
3	Spdye4a		fewer than 50 cells per well; well left out of calls	145	76.9	inactive
4	Arl5a	-0.64	enough cells in well	108	142	inactive
5	Pdgfd	-0.91	enough cells in well	114	80.7	inactive
6	Hsd3b1	-1.01	enough cells in well	153	128	inactive
7	Shkbp1	0.49	enough cells in well	81.2	118	inactive
8	Or2y1e	-0.76	enough cells in well	129	93	inactive
9	Hnrnpl	0.04	enough cells in well	188	208	inactive
10	Rcor1	-0.14	enough cells in well	153	192	inactive
11	Zc2hc1c	0.2	enough cells in well	272	73.1	inactive
12	Onecut2	-1.28	enough cells in well	146	95.8	inactive
13	Ppfia2	-0.88	enough cells in well	149	159	inactive
14	Sfpq	-1.23	enough cells in well	158	131	inactive
15	Shpk	-0.59	enough cells in well	100	124	inactive
16	Hbb-bh1	0.39	enough cells in well	297	173	inactive
17	Ankrd49	0.72	enough cells in well	248	210	inactive
18	Srsf5	2.63	enough cells in well	157	227	inactive
19	Txn1	0.26	enough cells in well	218	288	inactive
20	Rpp25l		fewer than 50 cells per well; well left out of calls	147	71.5	inactive
21	Tmod3	1.38	enough cells in well	139	166	inactive
22	4931431C16Rik		fewer than 50 cells per well; well left out of calls	244	96.6	inactive
23	Igsf1		fewer than 50 cells per well; well left out of calls	102	59	inactive
24	4930433I11Rik	1.04	enough cells in well	277	89.9	inactive
